Measurements as given in paper PMC4649906, “Unraveling the molecular architecture of a G protein-coupled receptor/β-arrestin/Erk module complex” (Scientific Reports, 2015).
These are yes or no findings as the source states them, for the method shown. Some entries that bind do so weakly or less than the wild type.

Chains of the proteins cited; added tags and fusions are not shown.
UniProt P28482: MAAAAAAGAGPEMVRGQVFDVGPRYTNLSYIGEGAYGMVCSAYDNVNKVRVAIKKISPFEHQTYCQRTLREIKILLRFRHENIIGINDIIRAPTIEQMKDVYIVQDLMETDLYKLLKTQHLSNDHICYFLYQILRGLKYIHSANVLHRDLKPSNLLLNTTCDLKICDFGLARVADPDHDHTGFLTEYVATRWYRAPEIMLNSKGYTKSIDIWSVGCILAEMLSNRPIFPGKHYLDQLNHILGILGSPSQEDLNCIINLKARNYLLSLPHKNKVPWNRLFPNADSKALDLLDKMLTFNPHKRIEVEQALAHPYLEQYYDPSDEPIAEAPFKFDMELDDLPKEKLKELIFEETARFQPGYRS
UniProt P49407: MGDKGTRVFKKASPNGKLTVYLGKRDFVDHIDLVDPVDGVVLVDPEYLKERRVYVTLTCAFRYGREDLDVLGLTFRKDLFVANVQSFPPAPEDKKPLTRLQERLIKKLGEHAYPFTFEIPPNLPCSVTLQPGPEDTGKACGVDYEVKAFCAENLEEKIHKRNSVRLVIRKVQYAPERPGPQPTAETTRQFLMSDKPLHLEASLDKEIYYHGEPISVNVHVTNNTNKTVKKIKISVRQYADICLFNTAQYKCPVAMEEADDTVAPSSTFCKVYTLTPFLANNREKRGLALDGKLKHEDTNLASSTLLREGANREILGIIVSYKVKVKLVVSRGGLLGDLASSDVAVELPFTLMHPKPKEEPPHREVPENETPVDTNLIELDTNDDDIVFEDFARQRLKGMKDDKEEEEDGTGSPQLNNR

Experiments:
GST-ERK2 fusion protein = GST-ERK2 fusion protein (UniProt P28482); test: pull-down; GST fusion protein immobilised on Glutathione Sepharose 4B beads; 25 ng human recombinant β-arrestin 1 as prey, with or without 0.5 mM peptide; 20 mM Hepes pH 7.9, 50 mM KCl, 2.5 mM MgCl2, 1 mM DTT, 10% glycerol, protease and phosphatase inhibitors; 1 hour at 4 °C; six washes; blot with anti-β-arrestin, quantified as the ratio of β-arrestin 1 over GST fusion; both purified
[1] = molecular target: GST-Raf1-RBD fusion protein (UniProt P04049); test: as above

| binding (GST-ERK2 fusion protein) | binding [1] | Molecule |
| --- | --- | --- |
| binds | binds | human recombinant β-arrestin 1 (from UniProt P49407 1-418) |
| – | binds | HIDLVEPVD [βarr1_Raf1 interfering peptide] |
| binds | – | LKHEDTN [βarr1_ERK2 interfering peptide] |
